Results on one compound are retold here after patent publication US20030027819A1, “Beta-sheet mimetics and methods relating to the use thereof” (Molecumetics Ltd., priority 1996, published 2003).

Sequences of proteins named here, by UniProt entry; tags and fusion partners are left off. Residues count along the entry.
UniProt P08709, 61-212 limits assumed: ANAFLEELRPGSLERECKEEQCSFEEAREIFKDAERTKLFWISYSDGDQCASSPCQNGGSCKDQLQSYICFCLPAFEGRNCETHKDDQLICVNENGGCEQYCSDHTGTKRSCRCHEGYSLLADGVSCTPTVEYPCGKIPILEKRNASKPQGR
UniProt P08709, 213-466 limits assumed: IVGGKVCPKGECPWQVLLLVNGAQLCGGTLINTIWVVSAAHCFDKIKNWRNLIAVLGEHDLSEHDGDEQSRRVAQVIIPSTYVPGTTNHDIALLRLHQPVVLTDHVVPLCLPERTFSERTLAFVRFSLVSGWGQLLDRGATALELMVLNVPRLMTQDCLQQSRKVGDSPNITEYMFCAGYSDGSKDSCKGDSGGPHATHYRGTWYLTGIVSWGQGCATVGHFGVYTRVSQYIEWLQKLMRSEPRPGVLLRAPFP
UniProt P13726, 33-295 partner limits assumed: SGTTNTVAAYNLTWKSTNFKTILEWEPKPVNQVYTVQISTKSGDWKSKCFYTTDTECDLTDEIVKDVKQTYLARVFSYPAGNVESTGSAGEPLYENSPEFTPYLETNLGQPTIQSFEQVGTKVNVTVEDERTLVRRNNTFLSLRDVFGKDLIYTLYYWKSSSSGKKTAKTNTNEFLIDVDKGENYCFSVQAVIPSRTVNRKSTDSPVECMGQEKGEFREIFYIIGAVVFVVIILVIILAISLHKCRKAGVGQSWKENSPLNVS

This assay has as its target factor VII (Homo sapiens, UniProt P08709). Briefly: Factor VII inhibition assay (Ki, Example 5). Particulars: read-out: Ki Factor VII.

The match of structure and compound is tentative.

In the case of `N=C(N)NCCC[C@H](NC(=O)[C@@H]1CC[C@@H]2CC[C@@](N)(Cc3ccccc3)C(=O)N21)C(=O)c1nc2ccccc2s1` [Structure 29b], the Ki (in general, a measure of affinity in units of concentration, obtained from inhibition or displacement) was found to be 200 nM.
